Laboratory results as given in PMC4860841, “eIF2 interactions with initiator tRNA and eIF2B are regulated by post-translational modifications and conformational dynamics” (Cell Discovery, 2015).

T1: eukaryotic initiation factor 2B γ-subunit (eIF2Bγ), FLAG-tagged (Saccharomyces cerevisiae) (UniProt P09032)
T1 sequence (chain, found in the purified protein (Table 1), pS296, acK346): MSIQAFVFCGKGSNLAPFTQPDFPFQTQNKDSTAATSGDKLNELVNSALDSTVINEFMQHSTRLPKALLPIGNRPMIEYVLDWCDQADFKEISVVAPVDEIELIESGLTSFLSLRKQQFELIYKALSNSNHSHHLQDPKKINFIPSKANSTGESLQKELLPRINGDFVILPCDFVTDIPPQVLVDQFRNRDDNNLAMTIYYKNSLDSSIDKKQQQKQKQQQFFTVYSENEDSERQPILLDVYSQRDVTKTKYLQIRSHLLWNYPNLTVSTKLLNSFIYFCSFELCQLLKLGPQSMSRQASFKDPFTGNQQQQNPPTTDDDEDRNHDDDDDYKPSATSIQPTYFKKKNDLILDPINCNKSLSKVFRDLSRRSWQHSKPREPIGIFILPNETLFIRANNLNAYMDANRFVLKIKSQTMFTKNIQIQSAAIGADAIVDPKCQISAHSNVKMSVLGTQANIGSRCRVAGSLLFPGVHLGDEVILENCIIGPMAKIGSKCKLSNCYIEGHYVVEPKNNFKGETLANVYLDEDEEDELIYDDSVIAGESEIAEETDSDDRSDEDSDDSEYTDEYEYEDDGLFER


Target: T1, eukaryotic initiation factor 2B γ-subunit (eIF2Bγ), FLAG-tagged (Saccharomyces cerevisiae)
Assay: affinity purification with mass spectrometry; FLAG-tagged eIF2B (tag on GCD1) from yeast lysate on anti-FLAG resin in high-salt buffer (500 mM KCl), washed with 500 mM ammonium acetate, eluted with FLAG peptide; LC-MS/MS of the subunits for PTM analysis

binding	Binder
binds	eukaryotic initiation factor 2B ε-subunit (eIF2Bε) (protein, UniProt P32501 1-712, found in the purified protein (Table 1): pS435, pS449, pS525, pS538) MAGKKGQKKSGLGNHGKNSDMDVEDRLQAVVLTDSYETRFMPLTAVKPRCLLPLANVPLIEYTLEFLAKAGVHEVFLICSSHANQINDYIENSKWNLPWSPFKITTIMSPEARCTGDVMRDLDNRGIITGDFILVSGDVLTNIDFSKMLEFHKKMHLQDKDHISTMCLSKASTYPKTRTIEPAAFVLDKSTSRCIYYQDLPLPSSREKTSIQIDPELLDNVDEFVIRNDLIDCRIDICTSHVPLIFQENFDYQSLRTDFVKGVISSDILGKHIYAYLTDEYAVRVESWQTYDTISQDFLGRWCYPLVLDSNIQDDQTYSYESRHIYKEKDVVLAQSCKIGKCTAIGSGTKIGEGTKIENSVIGRNCQIGENIRIKNSFIWDDCIIGNNSIIDHSLIASNATLGSNVRLNDGCIIGFNVKIDDNMDLDRNTKISASPLKNAGSRMYDNESNEQFDQDLDDQTLAVSIVGDKGVGYIYESEVSDDEDSSTEACKEINTLSNQLDELYLSDDSISSATKKTKKRRTMSVNSIYTDREEIDSEFEDEDFEKEGIATVERAMENNHDLDTALLELNTLRMSMNVTYHEVRIATITALLRRVYHFIATQTLGPKDAVVKVFNQWGLLFKRQAFDEEEYIDLMNIIMEKIVEQSFDKPDLILFSALVSLYDNDIIEEDVIYKWWDNVSTDPRYDEVKKLTVKWVEWLQNADEESSSEEE
binds	eukaryotic initiation factor 2B α-subunit (eIF2Bα) (protein, UniProt P14741 1-305, found in the purified protein (Table 1): N-term-ac-S2, pY166) MSEFNITETYLRFLEEDTEMTMPIAAIEALVTLLRIKTPETAAEMINTIKSSTEELIKSIPNSVSLRAGCDIFMRFVLRNLHLYGDWENCKQHLIENGQLFVSRAKKSRNKIAEIGVDFIADDDIILVHGYSRAVFSLLNHAANKFIRFRCVVTESRPSKQGNQLYTLLEQKGIPVTLIVDSAVGAVIDKVDKVFVGAEGVAESGGIINLVGTYSVGVLAHNARKPFYVVTESHKFVRMFPLSSDDLPMAGPPLDFTRRTDDLEDALRGPTIDYTAQEYITALITDLGVLTPSAVSEELIKMWYD
binds	eukaryotic initiation factor 2B β-subunit (eIF2Bβ) (protein, UniProt P32502 1-381, found in the purified protein (Table 1): N-term-ac-S2) MSSQAFTSVHPNAATSDVNVTIDTFVAKLKRRQVQGSYAIALETLQLLMRFISAARWNHVNDLIEQIRDLGNSLEKAHPTAFSCGNVIRRILAVLRDEVEEDTMSTTVTSTSVAEPLISSMFNLLQKPEQPHQNRKNSSGSSSMKTKTDYRQVAIQGIKDLIDEIKNIDEGIQQIAIDLIHDHEILLTPTPDSKTVLKFLITARERSNRTFTVLVTEGFPNNTKNAHEFAKKLAQHNIETLVVPDSAVFALMSRVGKVIIGTKAVFVNGGTISSNSGVSSVCECAREFRTPVFAVAGLYKLSPLYPFDVEKFVEFGGSQRILPRMDPRKRLDTVNQITDYVPPENIDIYITNVGGFNPSFIYRIAWDNYKQIDVHLDKNKA
binds	eukaryotic initiation factor 2B δ-subunit (eIF2Bδ) (protein, UniProt P12754 1-651, found in the purified protein (Table 1): pS131) MSESEAKSRSATPPSKAKQATPTTTAAANGEKKLTNKELKELKKQEKAAKRAAMKQANGISIEQQQQQAQMKKEKKQLQREQQQKREQKQKNANKKKQNERNVKKSTLFGHLETTEERRATILALTSAVSSPKTSRITAAGLMVPVVASALSGSNVLTASSLMPVGPNASSTVSASAPASTTTTLPASSAALSAGTSSASTNTPTAIQQEIASSNASDVAKTLASISLEAGEFNVIPGISSVIPTVLEQSFDNSSLISSVKELLLNKDLIHPSILLLTSHLAHYKIVGSIPRCIAMLEVFQIVIKDYQTPKGTTLSRNLTSYLSHQIDLLKKARPLSVTMGNAIRWLKQEISLIDPSTPDKAAKKDLCEKIGQFAKEKIELADQLIIDNASTQIEESTTIVTYGSSKVLTELLLHNAISLKKNIKVIVVDSRPLFEGRKMAETLRNAGVNVMYALITSLDTIFNMDVDYVFLGAHSILSNGFLYSRAGTAMLAMSAKRRNIPVLVCCESLKFSQRVQLDSVTFNELADPNDLVNIDYENPVERRGNKGALLNQFIKERKFEKKKLAMENKPKGNKIGGKKGSEGESKDASNEEDSNSKNILDGWQELPSLNIVNILYDLTPPEYIKKVITEFGALPPSSVPVILREYKGSA

Results are given in words; binding and its absence hold for the method and conditions named. Binding seen in cells or lysates may run through a third protein. A yes stands for co-enrichment or nearness to the bait. Other partners may have been found. Sequences can lack the tags named with a protein.
